Results deposited as PubChem BioAssay AID504784 (Drosophila RNAi Screening Center, 2011).

Screen: 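Search for regulators of lipid droplet storage in oleate-fed fly cells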 (primary screen)
Cells: Drosophila Kc167 embryonic cells
Knock-down reagent: long dsRNA against Drosophila genes, about 250 ng dsRNA per well
Duration: 4 days
Conditions: cells fed 400 µM oleic acid bound to BSA
Measurement: 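Cells imaged and segmented; ratio of lipid droplet area to nuclear area, log-transformed, then normalised as a B-score over the screen; higher means more stored lipid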
Direction: droplet/nuclear area B-score: higher = more stored lipid (overstorage)
The deposit covers about 17,000 reagents; shown is a random part of those with a known target gene and a result. 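Each column is one replicate's B-score; the combined score over replicates was not deposited, so single values may mislead.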 A plus sign joins genes that one reagent is predicted to hit.

The first 7 records, ahead of the listing:
gene | dsRNA | droplet/nuclear area B-score, replicate 1 | droplet/nuclear area B-score, replicate 2 | droplet/nuclear area B-score, replicate 3
spz6 | DRSC04533 | -0.116 | -1 | –
CG14113 | DRSC10116 | 1.26 | 0.7 | –
CG15525 | DRSC15062 | -0.28 | 0.682 | –
Swt1 | DRSC20028 | 0.602 | -0.653 | –
JhI-26 | DRSC06851 | -0.623 | – | –
CG32302 | DRSC08340 | 2.08 | 0.519 | –
Cipc | DRSC14898 | 0.521 | – | –

Main list, repeating the preview:
gene | dsRNA | droplet/nuclear area B-score, replicate 1 | droplet/nuclear area B-score, replicate 2 | droplet/nuclear area B-score, replicate 3
spz6 | DRSC04533 | -0.116 | -1 | –
CG14113 | DRSC10116 | 1.26 | 0.7 | –
CG15525 | DRSC15062 | -0.28 | 0.682 | –
Swt1 | DRSC20028 | 0.602 | -0.653 | –
JhI-26 | DRSC06851 | -0.623 | – | –
CG32302 | DRSC08340 | 2.08 | 0.519 | –
Cipc | DRSC14898 | 0.521 | – | –
Cipc | DRSC14900 | 0.944 | 0.709 | –
cd | DRSC16157 | -0.463 | -2.13 | –
Tsp33B | DRSC02418 | -0.854 | 0.127 | –
CG9451 | DRSC11074 | -0.0309 | -0.00137 | –
dysf | DRSC14529 | -0.234 | -1.4 | –
dysf | DRSC14895 | 0.0214 | -0.0796 | –
dysf | DRSC14896 | -0.689 | -0.992 | –
dysf | DRSC14897 | -0.627 | -2.73 | –
Pxn | DRSC08685 | -1.77 | -0.667 | -0.624
Pi3K21B | DRSC00771 | -0.436 | 0.362 | –
BBS8 | DRSC00360 | 0.658 | 1.76 | –
mei-217 + mei-218 | DRSC20349 | 1.38 | 0.859 | –
CatB | DRSC03194 | 2.27 | 0.797 | –
mus101 | DRSC19388 | -1.75 | -1.76 | -0.839
CG11030 | DRSC02120 | -1.67 | 0.327 | –
lncRNA:CR31044 | DRSC22451 | -1.08 | 0.837 | –
CG17824 (retired record) | DRSC10288 | 0.48 | -0.00637 | –
beg | DRSC10923 | 0.853 | 1.55 | -0.0313
PK2-R2 | DRSC16448 | -0.364 | -2.65 | –
aos | DRSC11323 | 1.85 | -0.601 | –
Cpr5C | DRSC18340 | -0.681 | 0.619 | 0.648
CG14095 | DRSC10098 | 0.542 | 0.264 | –
LManII | DRSC01986 | 1.42 | 0.917 | –
bt | DRSC17129 | -0.587 | -0.00339 | –
bt | DRSC17171 | 0.688 | -0.00339 | –
dpr5 | DRSC15766 | 0.105 | 1.19 | –
THADA | DRSC19675 | -0.725 | -2.47 | –
Root | DRSC15972 | 1.59 | -0.723 | –
CG31459 | DRSC13380 | 1.25 | -0.771 | –
CngB | DRSC04297 | -3.1 | 0.821 | –
Taz | DRSC07704 | -0.0471 | 0.431 | -1.94
Taz | DRSC22625 | -0.456 | -0.928 | –
CG12118 | DRSC17813 | 0.867 | -0.0562 | -0.945
CG6938 | DRSC10752 | -0.548 | 0.136 | –
Dph1 | DRSC09851 | 2.78 | -0.589 | –
CG6236 | DRSC15999 | -0.873 | 0.238 | –
Vav | DRSC20384 | -0.0663 | -0.833 | –
Mul1 | DRSC08174 | -2.25 | 2.48 | –
tkv + CR14033 + tRNA:Asp-GTC-2-1 + 1 more | DRSC00861 | 0.0344 | -0.822 | –
Dbct | DRSC19951 | 0.0109 | -0.961 | -1.39
wisp | DRSC19703 | 0.439 | -0.0947 | 1.85
wisp | DRSC23092 | 0.000145 | 0.867 | –
CG7492 | DRSC10855 | 0.499 | -2.2 | –
CG13796 + CG31904 | DRSC22161 | -0.498 | 0.826 | –
Vago | DRSC19833 | 1.83 | 0.835 | -0.916
CG2124 | DRSC18208 | 0.274 | 1.49 | 0.178
Zip42C.1 | DRSC05003 | -0.0414 | -0.0184 | –
CG31406 | DRSC12777 | 0.302 | -0.674 | –
CG32835 (retired record) | DRSC22693 | -1.72 | 2.38 | –
Tsc1 | DRSC16890 | -2.44 | -1.97 | –
Hmr | DRSC17740 | 0.235 | 1.48 | -0.186
vrs | DRSC15832 | -0.139 | 0.0636 | –
CG33137 | DRSC22131 | -0.000971 | -1.79 | –
CG17036 | DRSC02564 | 1.76 | 1.53 | –
CG31546 | DRSC12317 | 0.911 | -1.81 | –
Tsen54 | DRSC10527 | -2.6 | -1.07 | –
atilla | DRSC02971 | -1.56 | -0.988 | –
Tfb1 | DRSC07082 | -3.96 | -0.0182 | –
CG2685 | DRSC18463 | 2.74 | 0.66 | –
ATPsynbeta | DRSC17194 | 0.783 | 0.889 | –
CG11626 | DRSC14336 | -0.286 | -1.71 | –
CG31735 | DRSC01518 | -0.0283 | -0.288 | –
Ugt50B3 | DRSC04778 | -1.22 | 2.95 | –
Ugt50B3 | DRSC21419 | -0.992 | 1.07 | –
CG31457 | DRSC22935 | -0.271 | -0.954 | –
su(r) | DRSC18705 | 0.516 | -1.77 | -0.518
sbr | DRSC19770 | -0.284 | -2.67 | -0.367
sbr | DRSC20368 | 1.19 | 1.78 | -0.0182
Start1 | DRSC04384 | 0.204 | 0.484 | –
CG4835 | DRSC10452 | 1.96 | 0.379 | –
Mur18B | DRSC20063 | 0.00383 | -0.121 | –
GstD8 | DRSC16689 | 0.899 | 1.31 | –
Ilp4 | DRSC10701 | -0.0868 | -0.468 | –
CG30480 | DRSC06736 | 0.433 | 1.04 | –
bgcn | DRSC04062 | -0.937 | 0.0939 | –
bgcn | DRSC04063 | -2.82 | -0.357 | –
